Data from PubChem BioAssay AID504847 (National Center for Advancing Translational Sciences (NCATS), 2011).
The whole screen tested about 400,000 compounds, of which about 3,700 (0.93%) were called active. Inconclusive results, whose numbers are uncertain, are shown with a selection of clear calls. Calls come from the whole dose curve; as a rule, active = well fitted inhibition curve with a large enough effect; inconclusive = small, poorly fitted or top-dose-only effect, or another doubt; inactive = no such curve, though single readings can be large or run the other way. A potency beside an inconclusive call is a rough fit, not a confirmed value. Where a SMILES comes first, the peptide text is derived from it. The star is where a group is joined. Cbz = O=C(OCc1ccccc1)*
% is set by controls: 0 for no effect and ±100 for the full control effect; potency is the fitted concentration of half-maximal effect.

Protein sequences, listed by entry. Tags and fused reporters are not part of them.
UniProt P11473, whole entry, looked up: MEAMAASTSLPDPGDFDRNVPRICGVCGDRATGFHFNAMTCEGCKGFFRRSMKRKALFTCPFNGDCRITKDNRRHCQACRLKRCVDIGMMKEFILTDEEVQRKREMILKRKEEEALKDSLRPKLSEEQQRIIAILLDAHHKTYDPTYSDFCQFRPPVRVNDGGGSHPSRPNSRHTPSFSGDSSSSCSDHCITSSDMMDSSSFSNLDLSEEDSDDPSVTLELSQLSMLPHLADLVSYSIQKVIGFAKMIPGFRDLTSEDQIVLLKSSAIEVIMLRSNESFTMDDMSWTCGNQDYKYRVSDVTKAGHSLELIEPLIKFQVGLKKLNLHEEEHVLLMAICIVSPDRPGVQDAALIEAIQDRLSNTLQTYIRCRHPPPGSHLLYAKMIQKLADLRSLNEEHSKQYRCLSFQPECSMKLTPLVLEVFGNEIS

What follows are compounds tested against Vitamin D3 receptor (Homo sapiens) (UniProt P11473) (assay: Inhibitors of the vitamin D receptor (VDR): qHTS). Details: VDR-SRC2-3 peptide fluorescence polarization, 2 h; max response, negative = inhibition: stronger effect = lower value.
Method in brief: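 Compounds are added to VDR with labelled SRC2-3 coactivator peptide and held 2 h at room temperature. Inhibition of the VDR–peptide interaction is then read as a change in fluorescence polarization.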
With `CC(C)COc1cccc(C(=O)Nc2cc(S(=O)(=O)N3CCOCC3)ccc2N2CCCC2)c1` the max response, negative = inhibition was inactive: -11.8%. In the case of `CC1CCC(=O)N(CCOc2ccccc2)CC1` (configuration not stated), the Potency is reported as inconclusive: 63.1 µM [inhibitor, partial curve, poor fit]. For `CC1CCC2C(C1)Nc1c(C(=O)O)cccc1C2(C)C` (configuration not stated), the max response, negative = inhibition was inactive: -14%. For `COc1ccc(N2CCN(CCC(=O)c3ccc4ccccc4c3)CC2)cc1`, the Potency was active: 70.8 µM. For `COc1ccc(/C=C/C(=O)c2ccccn2)cc1`, the Potency was active: 39.8 µM. `COc1ccc(C(=S)N2CCN(c3ccccc3C)CC2)cc1OC` was tested, and the Potency was inconclusive: 79.4 µM [inhibitor, partial curve]. For `CC(C)C[C@@H](C=O)NC(=O)[C@H](CC(C)C)NC(=O)[C@H](CC(C)C)NC(=O)OCc1ccccc1` (Cbz-Leu-Leu-Leu-aldehyde), the Potency was inconclusive: 39.8 µM [inhibitor, partial curve]. With `COc1ccc(Cl)cc1/C=C1/C(=O)ON=C1C` the Potency was inconclusive: 35.5 µM [inhibitor, partial curve, poor fit]. For `CCOc1cc(CNC(=O)c2cc(-c3ccc(Cl)s3)nc3ccccc23)ccc1OC`, the max response, negative = inhibition was inactive: -14.9%. `CC1(C)CC(=O)c2sc(NS(=O)(=O)Cc3ccccc3)nc2C1` was tested, and the Potency was inconclusive: 100 µM [inhibitor, single point]. With `N#CC(C#N)=C1C=CC=CN1/C(=C\c1ccco1)C(=O)c1ccc(Cl)cc1` the Potency was active: 8.91 µM. `CCCCCOc1ccc(C(=O)CCN2CCOCC2)cc1` was tested, and the Potency was inconclusive: 50.1 µM [inhibitor, partial curve, poor fit]. `CC(C)c1ccc(NC2CCCN(C(=O)c3n[nH]c4c3CCC4)C2)cc1` (configuration not stated) was tested, and the max response, negative = inhibition was inactive: 12.1%. With `C=C1CC(Cn2cc(Br)c(=O)[nH]c2=O)(c2ccc(-c3ccccc3)cc2)OC1=O` (configuration not stated) the Potency was inconclusive: 25.1 µM [inhibitor, full curve, poor fit]. In the case of `O=C1NN(c2ccccc2)C(=O)/C1=C\c1ccccc1`, the Potency is reported as inconclusive: 89.1 µM [inhibitor, single point]. With `O=C1/C(=C/c2cccc(F)c2)SC(=S)N1NS(=O)(=O)c1ccccc1` the Potency was inconclusive: 50.1 µM [inhibitor, partial curve, poor fit]. `COc1ccc(NC(=O)CSc2nnc(-c3cccnc3)o2)c(OC)c1` was tested, and the Potency was inconclusive: 89.1 µM [inhibitor, single point]. `COC(=O)Cc1csc(NC(=O)CSc2nnc3ccccn23)n1` was tested, and the Potency was inconclusive: 35.5 µM [inhibitor, partial curve, poor fit]. `Cc1cc2oc(=O)cc(-c3ccccc3)c2c(C)c1-c1sccc1C=O` was tested, and the Potency was inconclusive: 44.7 µM [inhibitor, full curve]. `COC(=O)Nc1sc2c(c1C(N)=O)CCCCCC2` was tested, and the Potency was inconclusive: 56.2 µM [inhibitor, partial curve, poor fit]. In the case of `O=C(CSC1=NC2(CCCCCC2)N=C1c1ccccc1)Nc1ccc2c(c1)OCCO2`, the Potency is reported as inconclusive: 100 µM [inhibitor, single point]. With `S=c1[nH]cnc2scc(-c3ccccc3)c12` the Potency was inconclusive: 79.4 µM [inhibitor, partial curve]. For `O=C(NCCCc1ccccc1)c1cc(COc2ccc(F)cc2Cl)on1`, the Potency was inconclusive: 3.55 µM [inhibitor, partial curve, poor fit]. For `Cc1ccccc1S(=O)(=O)N1[C@@H](c2ccc(Br)cc2)C(C(=O)O)=CC[C@H]1c1ccc(Cl)cc1`, the Potency was inconclusive: 70.8 µM [inhibitor, single point]. For `COc1ccc(C(C)=O)cc1COC(=O)c1ccc(S(=O)(=O)N(C)C)cc1`, the max response, negative = inhibition was inactive: -7.95%. In the case of `CCCCCCCCN1[C@@H](CC(=O)OCC)c2ccc(C(F)(F)F)cc2S1(=O)=O`, the Potency is reported as inconclusive: 100 µM [inhibitor, single point]. With `O=C(CCN1CCOCC1)NNC(=S)NC(=O)c1ccccc1` the max response, negative = inhibition was inactive: -11.7%. `COc1cccc(-n2c(SCC(=O)O)nnc2-c2cccnc2)c1` was tested, and the max response, negative = inhibition was inactive: 1.74%. For `COc1ccc(NC(=O)CCOc2ccc(C)cc2)cc1S(=O)(=O)N1CCOCC1`, the Potency was inconclusive: 89.1 µM [inhibitor, single point]. `COc1ccc2nc(C)cc(Sc3nc4ccccc4s3)c2c1` was tested, and the Potency was inconclusive: 39.8 µM [inhibitor, partial curve]. For `O=C(NCc1ccco1)c1cc([N+](=O)[O-])ccc1N1CCCCC1`, the Potency was inconclusive: 35.5 µM [inhibitor, partial curve, poor fit]. `Cc1ccccc1N(C(=O)c1csnn1)C(C(=O)NC(C)(C)C)c1cccs1` (configuration not stated) was tested, and the Potency was inconclusive: 39.8 µM [inhibitor, single point]. For `O=C(NCc1ccccc1OC(F)(F)F)C1CCC(=O)N(Cc2ccccn2)C1` (configuration not stated), the Potency was inconclusive: 35.5 µM [inhibitor, partial curve, poor fit]. For `COc1ccccc1N1CCN(C(=O)c2ccccc2SCC(=O)N2CCCC2)CC1`, the max response, negative = inhibition was inactive: -15.8%. In the case of `O=C(NC1CC1)c1cccc2c1C(=O)c1ccc(N3CCC(Cc4ccccc4)CC3)cc1S2(=O)=O`, the max response, negative = inhibition is reported as inactive: -13.2%. For `Cc1ccc(S(=O)(=O)SCCCSS(=O)(=O)c2ccc(C)cc2)cc1`, the Potency was active: 50.1 µM. For `Cc1cc(OC(=O)c2ccco2)c(Sc2ccccc2[N+](=O)[O-])c(=O)o1`, the Potency was inconclusive: 56.2 µM [inhibitor, partial curve, poor fit]. `CCCS(=O)(=O)c1ncc(Cl)c(C(=O)Nc2scc(-c3ccccc3)c2C(=O)OCC)n1` was tested, and the Potency was inconclusive: 25.1 µM [inhibitor, partial curve, poor fit]. With `c1ccc(CSc2ccc(-c3cccs3)nn2)cc1` the max response, negative = inhibition was inactive: -24.3%. In the case of `CCCC(=O)NCCc1cc2c(C)ccc(C)c2[nH]c1=O`, the Potency is reported as inconclusive: 2.82 µM [inhibitor, partial curve, poor fit]. `Oc1ccccc1C(=S)N1CCN(c2cccc(Cl)c2)CC1` was tested, and the Potency was active: 89.1 µM. `O=C(Nc1ncccn1)c1ccc([N+](=O)[O-])cc1` was tested, and the Potency was inconclusive: 100 µM [inhibitor, single point].
